Earlier results, collected in US8664237B2 (The Johns Hopkins University, priority 2008, dated 2014).

Test system: 5-HT receptor
Settings: cited from earlier work

SMILES: O=C(CCCN1CCC2(CC1)C(=O)NCN2c1ccccc1)c1ccc(F)cc1 [spiperone]
- effect on 5-HT effects (inhibited Na+ absorption, stimulated Cl- secretion) (canine tracheal epithelia, another study): blocked those effects
- IC50 (read-out: IC50 for inhibiting 5-HT-stimulated Cl- secretion, previous study, excised dog trachea): 360 nM
